# Laboratory results published in PubChem BioAssay AID493014 (National Center for Advancing Translational Sciences (NCATS), 2011).
# Where “and” joins values, the source holds several entries; their conditions need not be identical. Equal entries are not always repeated. This is one part of the list. The main result of the screen is listed elsewhere. These columns were measured beside it and carry no call. Compounds called inactive in the main read-out are mostly missing here. Potencies come from curve fits of mixed quality, noted in brackets.
# Experiment: qHTS Assay to Find Inhibitors of Chronic Active B-Cell Receptor Signaling
# Conditions: ABC-DLBCL IkBa-CBG/CBR reporter, luminescence ratio (green luciferase fused to IkBa over red control in TMD8 lymphoma cells), 4 h
# Outline: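 TMD8 human ABC-DLBCL cells with doxycycline-inducible IκBα–green luciferase fusion and unfused red luciferase, in 0.5% FBS medium; compounds up to 46 uM, 4 h at 37C. Green/red luminescence ratio, filter-overlap corrected, fitted to concentration-response curves.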
# [1] = measured here: CBR red luminescence, cell number
SMILES,AC50 [1],AC50 (measured here: IkBa-CBG green luminescence)
COCCNC(=O)c1ccc2c(c1)C(=O)c1ccccc1-2,"5.01 µM [rising, full curve]",
COc1ccc(C(=O)N=c2sc3ccccc3n2C)cc1OC,"3.98 µM [rising, full curve]",
CC(C)(C)C(=O)Nc1nc2ccc(S(C)(=O)=O)cc2s1,"35.5 µM [falling, single point]",
C(=N\Nc1ccccn1)/c1ccc(N2CCOCC2)cc1,"2.82 µM [rising, partial curve]",
Cc1ccc(NC(=O)CSc2nnc(-c3cccs3)n2Cc2ccco2)cc1,"35.5 µM [falling, single point]",
COc1ccccc1CNc1ncnc2cc(Cl)ccc12,"3.55 µM [falling, single point]",
CCOc1ccc(NC(=O)CN(C)C(=O)CCCOc2ccc(Br)cc2)cc1OCC,"6.51 µM [falling, single point]",
O=C(/C=C/c1cccc(F)c1)OCC(=O)c1ccc[nH]1,"0.58 µM [rising, single point]",
O=C(Nc1ccc2c(c1)OCCO2)c1ccc(Cl)c(Cl)c1,"15.8 µM [falling, partial curve]",
O=C(/C=C/c1ccco1)Nc1cccnc1,"35.5 µM [falling, single point]",
CSc1nnc(-c2ccc(O)cc2)n1C,"3.98 µM [rising, full curve, poor fit]",
O=C(COc1cccc2ccccc12)N1c2ccccc2CCc2ccccc21,"12.6 µM [falling, partial curve, poor fit]",
CCCCNC(=O)[C@@](CC)(ONc1ccccc1C(F)(F)F)c1cccc2ccccc12,"6.51 µM [rising, full curve, poor fit]",
Cc1cc(OCc2cc(C(=O)N3CCCCCC3)no2)cc(C)c1Cl,"6.31 µM [rising, single point]",
O=C(O)CSc1cccc2cccnc12,"1.46 µM [rising, partial curve]",
c1ccc(-c2noc(-c3ccc4ccccc4c3)n2)nc1,"1.3 µM [falling, full curve]",
O=C(C1CCN(S(=O)(=O)c2ccc(Br)s2)CC1)N1CCN(C2CCCCC2)CC1,"35.5 µM [falling, single point]",
CCNC(=O)CN(c1ccc(Oc2ccccc2)cc1)S(=O)(=O)c1ccccc1,"6.31 µM [rising, partial curve, poor fit]",
O=C(COc1ccccc1[N+](=O)[O-])Nc1ccc(N2CCN(C(=O)c3cccs3)CC2)cc1,"17.8 µM [falling, single point]",
O=C(C[C@H]1C[C@H](C(=O)N2CCCCC2)[C@@]2(CCc3ccccc3)c3[nH]c4ccc(Cl)cc4c3CCN2C1=O)NCCC1=CCCCC1,"4.11 µM [rising, full curve, poor fit]",
Cc1occc1C(=O)Nc1cccc2ccccc12,"18.4 µM [falling, partial curve, poor fit]",

SMILES,AC50 [1],AC50 (measured here: IkBa-CBG green luminescence)
CC(C)(C)c1ccc(Cn2nnc3c(=O)[nH]c(C4CCCN(C(=O)Cc5cccs5)C4)nc32)cc1 (configuration not stated),"17.8 µM [falling, single point]",
O=C(COc1ccc2c(-c3ccccc3)cc(=O)oc2c1)NCCCN1CCOCC1,"14.1 µM [rising, single point]",
CN=C1S/C(=C\c2ccc(N3CCOCC3)c(F)c2)C(=O)N1C,"23.1 µM [rising, single point]",
CC(=O)C1=C(C)OC2(O)c3ccccc3C(=O)C12O (configuration not stated),"15.8 µM [rising, single point]",
COc1ccc(C(=O)C2CCCN(C(=O)CCc3scnc3C)C2)c(C)c1 (configuration not stated),"7.08 µM [falling, partial curve, poor fit]",
Cc1cc(C)c(C#N)c(SCc2nnc(-c3ccccc3[N+](=O)[O-])o2)n1,"1.41 µM [rising, partial curve, poor fit]",
C/C(=N\NC(=O)COc1ccccc1[N+](=O)[O-])c1cccc(NC(=O)c2ccncc2)c1,"1.12 µM [falling, partial curve]",
CC(C)CC(=O)NCCCN1CCN(CCCNC(=O)CC(C)C)CC1,"23.1 µM [rising, single point]",
CCOC(=O)C1=C(O)C(=O)N(Cc2cccnc2)C1c1ccc(C)cc1 (configuration not stated),"10 µM [rising, partial curve, poor fit]",
O=C(NCc1ccco1)C(=O)NCc1ccccc1Cl,"18.4 µM [falling, partial curve]",
S=C(Nc1ccccc1)Nc1ccc2cn[nH]c2c1,"35.5 µM [falling, single point]",
CCOc1ccc(-n2cc(-c3ccccc3)c3c(=S)nc[nH]c32)cc1,"14.1 µM [rising, single point]",
OCC#CCSc1nnc(-c2ccncc2)o1,"0.00517 µM [falling, full curve, poor fit]",
C=CCn1c(N)cc(=O)nc1SCC(=O)N(c1ccccc1)c1ccccc1,"15.8 µM [rising, partial curve, poor fit]",
Cn1c(=O)n(C)c2cc(NC(=O)c3ccccc3NS(C)(=O)=O)ccc21,"22.4 µM [falling, partial curve, poor fit]",
CC(=O)[C@H]1CC[C@H]2[C@@H]3CCC4=CC(=O)CC[C@]4(C)[C@H]3CC[C@]12C,"3.26 µM [rising, partial curve, poor fit] and 29.1 µM [rising, partial curve, poor fit]","5.17 µM [falling, full curve, poor fit]"
Cc1ccc(/C=N/NC(=O)c2ccc(Br)o2)s1,"29.1 µM [falling, single point]",
COc1ccc(Nc2cc(C(=O)NCCCN3CCN(C)CC3)c3ccccc3n2)cc1,"11.2 µM [falling, partial curve]",
Cc1ccc(NC(=O)c2ccc(NS(=O)(=O)c3c(C)noc3C)cc2)cc1C,"29.1 µM [falling, single point]",
CC(=O)O/N=C1\C(=O)N(Cc2ccc(C)cc2)c2ccccc21,"0.1 µM [falling, full curve, poor fit]",

# One compound at a time (already shown):
# Cc1occc1C(=O)Nc1cccc2ccccc12 is listed as AC50 [1]: 18.4 µM [falling, partial curve, poor fit]
# C(=N\Nc1ccccn1)/c1ccc(N2CCOCC2)cc1 is listed as AC50 [1]: 2.82 µM [rising, partial curve]
